Our source for the binding values is publication PMC7931247.

Amino acid sequences for entries named in this document (tags omitted). A change or cut given only in a name is not applied to a line headed by its entry.
UniProt O86717: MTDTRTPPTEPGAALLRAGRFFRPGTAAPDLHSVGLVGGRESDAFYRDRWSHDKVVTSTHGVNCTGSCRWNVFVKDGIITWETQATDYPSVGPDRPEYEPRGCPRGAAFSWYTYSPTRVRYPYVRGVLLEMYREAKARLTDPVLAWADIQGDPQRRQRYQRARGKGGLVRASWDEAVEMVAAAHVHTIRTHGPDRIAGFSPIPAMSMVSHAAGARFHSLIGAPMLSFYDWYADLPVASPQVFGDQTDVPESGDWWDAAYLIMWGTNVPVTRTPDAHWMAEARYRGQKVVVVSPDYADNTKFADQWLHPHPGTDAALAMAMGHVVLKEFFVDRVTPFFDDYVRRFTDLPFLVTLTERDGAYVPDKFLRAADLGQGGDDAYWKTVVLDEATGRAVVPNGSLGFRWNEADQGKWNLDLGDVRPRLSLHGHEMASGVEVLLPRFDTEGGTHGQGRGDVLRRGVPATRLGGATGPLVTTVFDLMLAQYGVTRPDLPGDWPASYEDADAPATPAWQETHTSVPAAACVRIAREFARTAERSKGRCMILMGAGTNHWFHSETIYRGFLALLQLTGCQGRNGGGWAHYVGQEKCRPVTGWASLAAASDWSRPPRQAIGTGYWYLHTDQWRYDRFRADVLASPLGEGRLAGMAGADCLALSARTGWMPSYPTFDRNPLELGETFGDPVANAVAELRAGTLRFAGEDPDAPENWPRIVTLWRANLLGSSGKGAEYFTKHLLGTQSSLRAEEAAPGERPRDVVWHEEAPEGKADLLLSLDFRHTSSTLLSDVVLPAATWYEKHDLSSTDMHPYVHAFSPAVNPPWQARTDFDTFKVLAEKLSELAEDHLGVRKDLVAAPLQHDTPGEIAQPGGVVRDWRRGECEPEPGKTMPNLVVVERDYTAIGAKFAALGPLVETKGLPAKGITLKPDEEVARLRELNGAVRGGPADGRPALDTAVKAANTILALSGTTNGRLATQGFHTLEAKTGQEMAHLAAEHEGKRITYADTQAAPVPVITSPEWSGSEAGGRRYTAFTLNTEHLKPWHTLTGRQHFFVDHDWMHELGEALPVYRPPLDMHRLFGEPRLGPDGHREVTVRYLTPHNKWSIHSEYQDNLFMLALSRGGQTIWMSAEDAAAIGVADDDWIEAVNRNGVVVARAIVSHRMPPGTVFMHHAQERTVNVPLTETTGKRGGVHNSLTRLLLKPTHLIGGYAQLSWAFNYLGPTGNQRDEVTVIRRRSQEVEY
UniProt Q9X808: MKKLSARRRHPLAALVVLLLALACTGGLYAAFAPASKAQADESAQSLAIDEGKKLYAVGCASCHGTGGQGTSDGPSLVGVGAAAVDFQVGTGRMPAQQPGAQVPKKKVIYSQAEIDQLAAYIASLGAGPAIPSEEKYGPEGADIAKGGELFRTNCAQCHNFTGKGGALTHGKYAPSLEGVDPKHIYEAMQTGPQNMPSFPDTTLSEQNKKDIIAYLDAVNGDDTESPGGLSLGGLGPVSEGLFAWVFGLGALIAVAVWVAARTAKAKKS
UniProt Q9ZBY7: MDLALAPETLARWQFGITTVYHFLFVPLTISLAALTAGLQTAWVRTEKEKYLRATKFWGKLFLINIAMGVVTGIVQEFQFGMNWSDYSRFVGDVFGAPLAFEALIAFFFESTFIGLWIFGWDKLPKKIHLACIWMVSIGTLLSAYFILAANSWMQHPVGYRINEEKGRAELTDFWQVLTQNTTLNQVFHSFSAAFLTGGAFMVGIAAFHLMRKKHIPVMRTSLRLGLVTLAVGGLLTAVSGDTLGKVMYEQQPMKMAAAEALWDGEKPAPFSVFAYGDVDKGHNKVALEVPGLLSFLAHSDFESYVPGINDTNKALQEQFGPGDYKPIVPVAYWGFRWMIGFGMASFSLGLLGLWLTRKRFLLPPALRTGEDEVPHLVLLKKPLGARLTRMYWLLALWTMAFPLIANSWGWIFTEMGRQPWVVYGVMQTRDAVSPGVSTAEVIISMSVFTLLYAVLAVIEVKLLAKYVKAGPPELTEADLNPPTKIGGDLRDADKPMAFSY

Results are given in words; binding and its absence hold for the method and conditions named. A result given as binding can be weak or reduced; the word gives no strength.

The target in test [1] is NarG1, catalytic subunit of nitrate reductase 1 (Nar1) (Streptomyces coelicolor A3(2)) (UniProt O86717). The experiment in a line: native gel or EMSA; untagged Nar1 enriched from Triton X-100-solubilised spore membranes (M145 + pNGnar1) by DEAE Sepharose and Superdex-200; BN/PAGE (4-16%), Coomassie-stained bands 1-5 excised and analysed by mass spectrometry.
The target is the same in test [2]. The experiment in a line: native gel or EMSA; untagged Nar1 enriched from Triton X-100-solubilised spore membranes (M145 + pNGnar1) by DEAE Sepharose and Superdex-200; CN/PAGE (10%) with in-gel nitrate reductase activity staining; activity bands A, B and C excised and analysed by mass spectrometry.
For test [3] the target is unchanged. The test is described as above. This is another data set of the same source.

For the molecule “QcrC, cytochrome bc1 complex cytochrome c subunit (from UniProt Q9X808)”, the binding entry in test [1] and in test [2] was “binds” each time.
In the case of “CydA, catalytic subunit of the cytochrome bd oxidase (from UniProt Q9ZBY7)”, in test [2], the binding result is “binds”.

B1: CtaC, probable cytochrome c oxidase subunit 2 (protein, UniProt Q9X814 34-319)
chain: CTYEDFPRLGMPTPTTEEAPRILSLWQGSWAAALATGVLVWGLILWSVFFHRRSRTKVEVPPQTRYNLPIEALYTMVPLVIVSVLFYFTARDESDLMSLNKKPDLTVNVVGFQWSWCFNHIEDVPGSTGDAKTSKELAGIPDRFIEDFPANAGGVYDCGTPGTENPQTGNPGPTLWLPKGKTVRFVLTSRDVIHSFWVVPFLMKQDVIPGHTNAFEVTPNKEGTFLGKCAELCGVDHSRMLFNVKVVSPERYEQHLQDLAKKGQTGYVPAGIAQTSHEKNRETNNL
With B1, the binding result in test [1] and in test [3] was “binds” each time.

B2: QcrB, cytochrome b component of the cytochrome bcc-aa3 oxidase supercomplex (protein, UniProt Q9X806 1-545)
chain: MSTAANEPSRSRGKAPAGERVADWADGRLGIYSLAKANMRKIFPDHWSFMLGEVCLYSFIIIILTGVYLTLFFHPSMAEVEYHGSYVPLQGQMMSEAYASTLDISFDVRGGLLIRQIHHWAALIFLAGMFVHMMRVFFTGAFRKPREVNWLFGFLLLVLGMFTGFTGYSLPDDLLSGTGIRFMEGAILSVPIVGTYISFFLFGGEFPGHDFVSRFYSIHILLLPGIMLGLLVGHLILVFYHKHTQFAGPGKTNKNVVGMPLLPVYTAKAGGFFFLVFGVISVVSAIATINPIWAIGPYRPDQVSTGAQPDWYMGFSEGLIRVMPGWEINAWGHTLVLGVFVPLLIFPLVLAAIAVYPFIESWVTGDKREHHILDRPRNAPTRTAFGVAWLTVYFVLLIGGGNDLWATHFHLSINAITWFVRIAFFVGPVVAFIATKRICLGLQRRDKDKVLHGRESGIIKRLPHGEFIEVHEPLSQEQLHTLTAHEQYQPAEIGPTVDENGVERKVSGTQKLRAKLSESYYGEESQIPKPTVEEYKEITSGHGHH
For the molecule B2, the binding entry in test [1] and in test [3] was “binds” in each case.

B3: NarG3, nitrate reductase alpha-chain of the Nar3 enzyme (protein, UniProt Q9EWF3 1-1227)
chain: MADAADRLLKAGQLLRRSPTTLDLRAVYRTDQNVNDRPYRERWAHDKVVRSTHGVNCTGSCSWKVYVKDGLITWETQQTDYPSVGPDRPEYEPRGCPRGASFSWYTYSPTRVRHPLARGVLVEMYRDAKRRHGGDPVAAWAELTSDPEKRRRYQSARGRGGFVRVDWDEALEIAAAAQVHTIAEYGPDRVAGFSPIPAMSMASHAVGARYHSLIGAPMISFYDWYADLPIASPQVFGDQTDVPESGDWWDAAYLMLWGSNVPVTRTPDAHWMAEARYRGQKVVVVSPDYADATKFADEWLHPHPGTDGALAMAMGHVLLTEFFVRRQVPYFTDYVKRFTDLPFLVALDEHAAGRWTPGKFVTAADLGLGRHADAGARAWMPVLIDADTDDVVVPNGTLGDRWGKGGEGRWNLDLGGTDPLLTLHGHTGGRGDNGVEVVLPRFDEPGATVVRGVPAREIGGRLVTTVYDLLLAQYAVARPGLAGHWPTGYDDAEQPCTPAWQERLTSVPAEAAVRAAREFARTAEQTRGRCMIVMGAGTNHWFHSDTIYRSFLSLLILTGCQGVNGGGWAHYVGQEKVRPYTGWQQLSTAADWVRPSRQMAGTPYWYLHTGQWRYESHAADALASPTAPGTLAGLHTADLVAQSARLGWMPSYPTFDANPLDLGRRARESGQEPGDWIAEQLGSGAVDFACEDPDAPRNWPRVLTVWRANLIGSSAKGNEYFLRHLLGARDGATSSEAPPEHRPRSVAWRDDAPEGKLDLLLSLDFRMTSTTLFSDLVLPAATWYEKHDLSSTDMHPFVHAFSPAINPPWQARTDFEIFHSLARRLSELAAGRLGTAHDLVATALQHDTPGETAQPGGRVTDWRDGRTPIEPGRNAPQVSLVERDYTAVADRLAAFGPLAEEHGMTVKGVTVNPHEESRWLAARCGTAPAGPARGRPLLDTDVKFCEAILALSGTTNGRLAAEGFDRLADRVGPGAGLAELAASVGERRVVFSDTQERPVQVGASFEWSGKEAPDRRYSPFTVNTEHKKPWHTLTGRQHFYVDHDWMAELGEQLPVYRPPLNLAELGDAPIPTGDGRAVTVRYLTPHAKWSIHSEYQENLLMQTLARGGPVVWMSPADADAIGAADNDWVEAVNAHGVVVARAIVSHRVPDGTVLMYHVQERLVNVPKSEANGRRGGVHNSLTKLLVKPTHLIGGYGQLSFAPNYYGPTGNQRDAVTTIRRRSQEVTY
Take B3: the binding entry in test [1] and in test [3] was “binds” each time.

B4: NarH3, nitrate reductase beta-chain of the Nar3 enzyme (protein, UniProt Q9EWF4 1-548)
chain: MAQVAMVMNLDKCIGCHTCSVTCKQTWTNRTGTEYVWFNNVETRPGQGYPRGHEDQEKWKGGWHLKGGRLVPRTGGRARRLARLFANPELPTLDDYYQPWTYDYENLTTAPLGDDIPTAPPRSAIDGRPTEITWGPNWDDDLGGGPAQLAADPLLARMSEQVRLDYERAFMFYLPRICEHCLNPSCVAVCPSGALYKRVEDGIVLVDQDRCRGWRMCVSGCPYKKVYFNHSTGKAEKCTFCYPRIEAGDPTVCSETCVGRLRYLGVMLYDPDKVGAAASVTDEKDLYEAQLGCFLDPDDPEVARAAQASGIPHDWVEAARRSPVHALITRYRVALPLHPEYRTMPMVWYVPPLSPVVDALTGTGHDGEDPAALFGAIDTLRIPLGYLAELFTAGDPGPVEAALCRLAAMRSHMRRVNLGEEQDPRIAEAVGLDEPGILELYRLLALAKYDERYVIPTAYTGSVPDPGGTGAGCSLDGVGGPGMMPEGAGGGPGFGEFDPEAFHAPPTAGSGTSSALRGRVNLLNWNGKGRPNGLFPRARGAVRTEPEL
B4: the binding entry in test [1] and in test [3] was “binds” each time.

B5: QcrA, cytochrome bc1 complex Rieske iron-sulfur subunit (protein, UniProt Q9X807 1-353)
chain: MSSQDIPEENLPAEQDRPHGAAARPADETNPFADPGLPPHEPRVQDVDERAAKRSERTVALLFTLSMLATIAFIAAFVAIDVDKSVYIFPLGHISALNFALGMTLGVALFAIGAGAVHWARTLMSDEEVADERHPIEASPEVRAKVHADFKQGAKESVIGRRKLIRNTMLGALTLVPLSGVVLLRDLGPLPGTKLRHTLWSKGKLLVNMNTNEPLRPSDVAVGSLTFAMPEGLEEHDEDFQNEIAKAALMIIRLEPDSIKDKRELEWSHEGIVAYSKICTHVGCPISLYEQQTHHALCPCHQSTFDLADGARVIFGPAGHALPQLRIGVNDEGYLEALGDFEEPVGPAYWERG
As to B5, the binding result in test [1] and in test [3] was “binds” in each case.

B6: CtaD, probable cytochrome c oxidase subunit 1-alpha (protein, UniProt Q9X813 1-578)
chain: MSILNEPQGASAAEDSYENELPVRRKQPGNVVIKWLTTTDHKTIGTMYLVTSFAFFVIGGVMALFMRAELARPGLQIMSNEQFNQAFTMHGTIMLLMFATPLFAGFANWIMPLQIGAPDVAFPRLNMFAYWLYLFGSTIAVGGFLTPQGAADFGWFAYSPLSDAVHSPGIGGDLWIMGLAFSGFGTILGSVNFITTIICMRAPGMTMFRMPIFTWNVLLTGVLVLLAFPVLAAALFALEADRKFGAHIFDSSNGGALLWQHLFWFFGHPEVYIIALPFFGIVSEIIPVFSRKPIFGYMGLIGATIAIAGLSVTVWAHHMYVTGGVLLPFFSFMTFLIAVPTGVKFFNWIGTMWKGSLSFETPMLWSTGFLITFLFGGLTGVILASPPLDFHVSDSYFVVAHFHYVVFGTVVFAMFAGFHFWWPKFTGKMLDERLGKITFWTLFVGFHGTFLVQHWLGAEGMPRRYADYLAADGFTALNTISTISSFLLGMSILPFFYNIWKTAKYGKKIEVDDPWGYGRSLEWATSCPPPRHNFLTLPRIRSESPAFDLHHPEISAIDQLENVGHGEKALAGGKEAGK
With B6, the binding entry in test [1] and in test [3] was “binds” each time.

B7: QcrB3, alternative spore-specific cytochrome b, paralogue of QcrB (protein, UniProt Q9K4I9 1-554)
chain: MLLQRRRARAGARARHAAEHTVNWADGRLPVSEGGGLLRKAFPEHWSFLLGEIALYSFVVLLLTGVWLTLFFKPSMTEVVYDGSYEPLLGVSMSEAYRSTLDISFDVRGGLLIRQAHHWASLVFLSAIGVHLLRVFFTGAFRRPREVNWLIGLTLFVLALAEGFAGYSLPDDLLSGTGLRIAQGIMLSIPVVGTYISMFVFGGEYPGHDIVPRLYSLHILLVPALLVALVTLHLILVFYLKHTQWAGRGRTNRNAVGKPMFPQFMTNSTGLFLMVFGVLVVLAAVAEINPIWTYGPYRPDIVSTGSQPDWYVGFLEGSLRLMPPFETAVAGHTVMWNVLVPAVLLPGALFAVLYAYPFFERWVTGDHEEHHLCDRPRDKPVRTGLGVAAIVFYAVLLLAGGNDILAHTFHVSLNLLTWIFRVSLVLAPPLAFVVTKRVCLALQEHDRERLTEGEETGEVHQTLAGGYAESHGPLDPEERHVLRARRQPAPLAPSPKEGGAPHVGRLRATLSEWYYGDRVDVEDVEPEPERESVAQTEASAEAVERDAYSGEPER
B7: the binding result in test [1] and in test [3] was “binds” throughout.
